Measured values from PubChem BioAssay AID504648 (National Center for Advancing Translational Sciences (NCATS), 2011).
In all, about 390,000 compounds went through this assay and about 610 (0.16%) were called active. Inconclusive means that the source gave no clear call. Such entries were picked first, then a sample of the others. The call rests on the fitted dose curve; in most records, active means well fitted inhibition curve with a large enough effect; inconclusive means small, poorly fitted or top-dose-only effect, or effect the other way, or another doubt; inactive means no such curve, though single readings can be large or run the other way. A potency beside an inconclusive call is a rough fit, not a confirmed value.
On the % scale 0 is the no-effect control and ±100 the full control effect; potency means the concentration at half of the fitted maximal effect.

Assay: Nrf2 qHTS screen for inhibitors: counterscreen for cytotoxicity
Conditions: A549 ARE-Fluc cells, CellTiter-Fluor viability, 18-24 h; activity change, negative = cytotoxicity: at 46 µM (top of the series)
In short: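 Cytotoxicity counterscreen: CellTiter-Fluor fluorescence was measured in A549 ARE_Fluc cells after 18-24 h of compound exposure in a concentration series. The subsequent BugLite luminescent read reports ARE-luciferase activity.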
In the case of `Cc1cc(F)ccc1S(=O)(=O)Nc1ccccc1C(=O)NC1CCN(Cc2ccccc2)CC1`, the Potency is reported as inconclusive: 16.4 µM [falling, partial curve, poor fit]. In the case of `CCN(CC(=O)Nc1ccccc1C(F)(F)F)C(=O)c1ccc2[nH]c3c(c2c1)CC(C)CC3` (stereo not drawn), the Potency is reported as inconclusive: 23.1 µM [falling, single point]. For `N#C/C(=C\c1ccc(Cl)cc1)C(=O)NCC1CCCO1` (stereo not drawn), the Potency was inconclusive: 3.66 µM [falling, single point]. In the case of `Cc1ccc(C(=O)Nc2cccc(C(F)(F)F)c2)cc1NC(=O)c1c[nH]c2cc(C(F)(F)F)ccc2c1=O`, the “activity change, negative = cytotoxicity” value is reported as inactive: -0.507%. For `NC(=O)CC(NC(=O)c1ccc(Br)cc1)c1ccc(NCc2ccc(F)c(F)c2)c([N+](=O)[O-])c1` (stereo not drawn), the Potency was inconclusive: 23.1 µM [falling, single point]. In the case of `O=C(/C=C/c1ccc(S(=O)(=O)N2CCOCC2)cc1)N1CCN(c2ccccc2)CC1`, the “activity change, negative = cytotoxicity” value is reported as inactive: 1.13%. For `CCOC(=O)C(=Cc1ccc(OCc2ccc([N+](=O)[O-])cc2)c(OC)c1)C(=O)OCC`, the Potency was inconclusive: 29.1 µM [falling, single point]. With `COc1ccc(Cc2[nH]n3c(=O)c(Cl)c(C)nc3c2-c2ccccc2)cc1` the Potency was inconclusive: 3.66 µM [falling, single point]. For `COc1ccccc1C(=O)N1CCN(c2cccc(Cl)c2)CC1`, the Potency was inconclusive: 1.84 µM [falling, full curve]. With `CCc1ccc2[nH]c(=O)c(CN(Cc3nnnn3C3CCCC3)C3CCCCC3)cc2c1` the “activity change, negative = cytotoxicity” value was inactive: -13%. For `O=S(=O)(/C(=C/c1ccc(C(F)(F)F)cc1)c1nc2ccccc2[nH]1)c1ccccc1`, the Potency was inconclusive: 29.1 µM [falling, single point]. In the case of `S=C(NCCCc1ccccc1)Nc1ccc(Br)cc1`, the Potency is reported as inconclusive: 20.6 µM [falling, partial curve, poor fit]. In the case of `CSc1ncc(CN2CCC(C(=O)Nc3cccc(-c4cscn4)c3)CC2)cn1`, the Potency is reported as inconclusive: 29.1 µM [falling, partial curve, poor fit]. With `c1cc(SC2CCCCC2)cc(-c2nc3cnccn3c2NC2CCCCC2)c1` the Potency was inconclusive: 29.1 µM [falling, single point]. In the case of `COc1ccc(-n2nc3c(N4CCC(C(=O)NCCc5ccco5)CC4)nnc(C)c3c2C)cc1`, the Potency is reported as inconclusive: 18.4 µM [falling, partial curve, poor fit]. For `CC(C)(C)OC(=O)NCCCC[C@@H](C(=O)NCCCCCCCCCCC(=O)N1CCN(C(=O)OC(C)(C)C)CC1)n1cc(CCO)nn1`, the Potency was inconclusive: 23.1 µM [falling, single point]. In the case of `Oc1ccc(-c2nc3ncccn3c2Nc2ccc3c(c2)OCCO3)cc1`, the Potency is reported as inconclusive: 10.3 µM [falling, partial curve, poor fit]. With `CC[C@@H](C(=O)[C@@H](C)[C@@H](O)[C@H](C)CCc1ccc(C)c(O)c1C(=O)O)[C@H]1O[C@](CC)([C@H]2CC[C@](O)(CC)[C@H](C)O2)C[C@@H]1C` the Potency was active: 6.51 µM. With `CCCCCn1c(NCc2ccccc2OC)nc2ccccc21` the Potency was inconclusive: 32.6 µM [falling, partial curve, poor fit]. In the case of `CCCCOc1ccc(C(=O)NCC2(N3CCN(C)CC3)CCCCC2)cc1`, the “activity change, negative = cytotoxicity” value is reported as inactive: -10%. In the case of `O=C(CCCN1C(=O)/C(=C/c2ccc(F)cc2)SC1=S)NCCCn1ccnc1`, the “activity change, negative = cytotoxicity” value is reported as inactive: -18.8%. For `Cc1cc(C)n(S(=O)(=O)c2cc(C)c(C)cc2C)n1`, the Potency was inconclusive: 20.6 µM [falling, single point]. With `COc1ccc(Cn2cc(C(=O)c3ccc(OC)cc3)c(=O)c3cc4c(cc32)OCCO4)cc1` the “activity change, negative = cytotoxicity” value was inactive: -9.92%. With `COc1ccc(S(=O)(=O)N(C(=O)c2ccncc2)c2ccc3oc4c(c3c2)CCCC4)cc1` the Potency was inconclusive: 29.1 µM [falling, partial curve, poor fit]. With `CCOC(=O)Cn1nnnc1C(C(C)C)N(Cc1cccs1)Cc1cc2cc(C)ccc2[nH]c1=O` (stereo not drawn) the Potency was inconclusive: 29.1 µM [falling, single point]. In the case of `CC1(C(=O)N2CCC(CC3CC(c4cccc(Br)c4)=NO3)(C(=O)NCC3CCCCC3)CC2)CC1` (stereo not drawn), the Potency is reported as inconclusive: 10.3 µM [falling, partial curve, poor fit]. For `O=C(/C=C\Nc1ccc(S(=O)(=O)Nc2ncccn2)cc1)c1cccc2ccccc12`, the Potency was inconclusive: 16.4 µM [falling, partial curve, poor fit]. In the case of `S=C(NC1CCCC1)N1CCN(c2cccc(Cl)c2)CC1`, the Potency is reported as inconclusive: 18.4 µM [falling, partial curve, poor fit]. In the case of `CC(C)(C)OC(=O)N1CCC(c2c(C(=O)N3CCN(c4ccccn4)CC3)cnn2-c2cccc(F)c2)CC1`, the “activity change, negative = cytotoxicity” value is reported as inactive: -1.36%. In the case of `CCN(CC)c1ccc(-c2nn3c(-c4cccnc4)nnc3s2)cc1`, the Potency is reported as inconclusive: 14.6 µM [falling, partial curve, poor fit]. For `Cc1ccc(NC(=O)Cn2c(=O)n(Cc3ccco3)c(=O)c3sc4ccccc4c32)c(C)c1`, the “activity change, negative = cytotoxicity” value was inactive: -1.19%. For `O=C(COc1ccccc1)N1CCCC1`, the “activity change, negative = cytotoxicity” value was inactive: -0.739%. In the case of `Cc1ccc(NC(=O)COc2cccnc2[N+](=O)[O-])cc1S(=O)(=O)N1CCCCC1`, the Potency is reported as inconclusive: 10.3 µM [falling, partial curve, poor fit]. With `COc1ccc(/C=N/Nc2cc(C)nc3ccc(OC)cc23)c(OC)c1` the Potency was inconclusive: 32.6 µM [falling, single point]. With `O=S1(=O)CCC(N2CCOCC2)C1` (stereo not drawn) the Potency was inconclusive: 20.6 µM [activator, partial curve, poor fit]. With `O=C(Nc1ccc(C(=O)N2CCOCC2)cc1)c1cc(-c2cccnc2)nc2ccc(Br)cc12` the “activity change, negative = cytotoxicity” value was inactive: -8.33%. For `CCN(CC)S(=O)(=O)c1cc([N+](=O)[O-])ccc1NNC(=O)Nc1ccc(Cl)c(Cl)c1`, the Potency was inconclusive: 29.1 µM [falling, single point]. In the case of `CCCCNC(=O)Nc1ccc2c(c1)N(C)C(=O)c1ccccc1S2`, the Potency is reported as “inactive”. With `O=C(CSc1nnc(Cc2ccccc2)o1)Nc1ccc(Br)cn1` the “activity change, negative = cytotoxicity” value was inactive: -7.19%. With `Cc1ccc(C)c(Cn2c(=O)c3c(nc4n3CCN4Cc3ccco3)n(C)c2=O)c1` the Potency was inconclusive: 11.6 µM [activator, partial curve, poor fit]. In the case of `CC(=O)Nc1ccc(S(=O)(=O)NCC2CCC(C(=O)NCc3ccccc3)CC2)cc1` (stereo not drawn), the Potency is reported as “inactive”. With `Cc1ccc2[nH]c3c(NCc4ccccc4)ncnc3c2c1` the Potency was active: 18.4 µM. For `COc1ccc(NC(C#N)c2ccccc2OCc2ccccc2)cc1` (stereo not drawn), the Potency was inconclusive: 29.1 µM [activator, single point]. In the case of `CC(C)N(C(=O)[C@H]1CC(CC(=O)NCc2cccc(C(F)(F)F)c2)C(=O)N2CCc3c([nH]c4ccccc34)[C@]12C)C(C)C` (stereo partly drawn), the Potency is reported as inconclusive: 20.6 µM [falling, single point]. In the case of `CC1CC2C3CCC4=CC(=O)C=CC4(C)[C@@]3(Cl)C(O)CC2(C)C1(O)C(=O)CO` (stereo partly drawn), the “activity change, negative = cytotoxicity” value is reported as inactive: -13.1%. With `COc1ccc(-c2csc(NC(=S)NC(=O)/C=C/c3ccco3)n2)cc1OC` the Potency was inconclusive: 9.2 µM [falling, partial curve]. In the case of `COc1ccc(-c2n(CC(=O)OC3CC(C)CCC3C(C)C)c3ccccc3[n+]2C)cc1` (stereo not drawn), the Potency is reported as inconclusive: 29.1 µM [falling, single point]. In the case of `CCCS(=O)(=O)c1nc(S(=O)(=O)c2ccc(C)cc2)c(NCCCN(C)C)s1`, the Potency is reported as inconclusive: 23.1 µM [falling, partial curve, poor fit]. In the case of `O=C1NC(=S)S/C1=C\c1cccc([N+](=O)[O-])c1`, the Potency is reported as inconclusive: 18.4 µM [falling, partial curve, poor fit]. For `COc1ccccc1NC(=O)Cn1cnc2sc(C(=O)Nc3ccc(OC)c(OC)c3)c(C)c2c1=O`, the Potency was inconclusive: 18.4 µM [falling, single point]. In the case of `COC(=O)C(=Cc1ccc(OCc2ccc([N+](=O)[O-])cc2)c(OC)c1)C(=O)OC`, the Potency is reported as inconclusive: 29.1 µM [falling, single point]. For `O=c1cc(CSc2ccccc2)[nH]c2ccccc12`, the “activity change, negative = cytotoxicity” value was inactive: -2.52%. With `COc1ccc(NC(C)C(=O)Nc2cccc(S(=O)(=O)N3CCOCC3)c2)cc1OC` (stereo not drawn) the Potency was inconclusive: 8.2 µM [falling, partial curve, poor fit]. For `Cn1c(=O)c2c(nc(N/N=C/c3cccnc3)n2Cc2ccccc2)n(C)c1=O`, the “activity change, negative = cytotoxicity” value was inactive: -0.22%. For `O=[N+]([O-])c1cccnc1NCCNc1ncc(C(F)(F)F)cc1Cl`, the “activity change, negative = cytotoxicity” value was inactive: -5.44%. For `CCOC(=O)c1cccc(NC(=O)c2cc3cc4cc(OC)ccc4nc3s2)c1`, the Potency was inconclusive: 16.4 µM [falling, partial curve, poor fit]. For `CCOc1cc2[nH]c(=S)n(CC3CCCN3CC)c(=O)c2cc1OCC` (stereo not drawn), the Potency was inconclusive: 6.51 µM [activator, single point]. In the case of `CCCCn1c(NC(=O)c2ccccc2Cl)c(C#N)c2nc3ccccc3nc21`, the Potency is reported as inconclusive: 9.2 µM [falling, partial curve, poor fit]. In the case of `Cc1cc(C)cc(-n2c(C)cc(/C=N/NC(=O)c3cccc([N+](=O)[O-])c3C)c2C)c1`, the Potency is reported as inconclusive: 18.4 µM [falling, single point]. For `CCOC(=O)c1cn(Cc2ccccc2)c(C(=O)OC(C)(C)C)c1O`, the Potency was inconclusive: 29.1 µM [falling, single point]. In the case of `CC1(C)CC2CC(C)(CN2C(=O)COC(=O)c2ccc(Cl)cc2N)C1` (stereo not drawn), the “activity change, negative = cytotoxicity” value is reported as inactive: -12.3%. With `Cc1ccc2c(c1)N(CC(=O)N1CCCCCC1)C(=O)CO2` the Potency was inconclusive: 13 µM [falling, partial curve, poor fit]. For `NS(=O)(=O)c1ccc(CCN2C(=O)/C(=C\c3ccc(Cl)cc3)SC2=S)cc1`, the Potency was inconclusive: 20.6 µM [falling, single point].
